In the supplement of paper PMC4807443:
Structures can show the parent of a compound that is named as a salt. The list shows a part of the results. The numbers are fractions of the control, whatever unit the source prints. Most entries show no effect beyond the scatter of the controls.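 MIN6, a mouse insulinoma beta-cell line, stably carries a lentiviral reporter where Pdx1 and Ins1 promoters each drive a nuclear fluorescent protein; Hoechst staining and automated imaging counted cells. Drugs were candidate hits if Ins1 promoter readout exceeded two median absolute deviations from DMSO controls while Pdx1 activity stayed near normal.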

System: MIN6
Test: % Pdx1+ Ins1-low (RFP-only, immature) cells relative to DMSO control (fold of DMSO control); higher = more immature Pdx1+/Ins1-low cells
Details: 8.5 µM; 48 h; glucose 5 mM

Row | SMILES | % Pdx1+ Ins1-low
1 | C[C@H]1[C@H](NC(=O)/C(=N\OC(C)(C)C(=O)O)c2csc(N)n2)C(=O)N1S(=O)(=O)O [Aztreonam] | 0.794
2 | CNCCC=C1c2ccccc2CCc2ccccc21 [Nortriptyline hydrochloride] | 0.681
3 | CN(N=O)C(=O)N[C@@H](C=O)[C@@H](O)[C@H](O)[C@H](O)CO [Streptozotocin] | 0.744
4 | CCc1cc(C(N)=S)ccn1 [Ethionamide] | 1.24
5 | CCC(=O)[C@@]1(C)[C@H](C)C[C@H]2[C@@H]3CCC4=CC(=O)C=C[C@]4(C)[C@H]3[C@@H](O)C[C@@]21C [Rimexolone] | 1.04
6 | O=C1C=CC(=O)c2c1ccc1c2ccc2ccccc21 [Chrysene-1,4-quinone] | 1.13
7 | O=C(N/N=C/c1ccc([N+](=O)[O-])o1)c1ccc(O)cc1 [Nifuroxazide] | 1.19
8 | CN1CCN(C(c2ccccc2)c2ccc(Cl)cc2)CC1 (stereo not given) [(1-[(4-Chlorophenyl)phenyl-methyl]-4-methylpiperazine)] | 0.675
9 | CNC(=C[N+](=O)[O-])NCCSCc1ccc(CN(C)C)o1 [Ranitidine hydrochloride] | 0.783
10 | COC(=O)[C@H]1[C@H]2C[C@@H]3c4[nH]c5cc(OC)ccc5c4CCN3C[C@H]2C[C@@H](OC(=O)c2cc(OC)c(OC)c(OC)c2)[C@@H]1OC [Reserpine] | 1.08
11 | COc1cc2c(cc1OC)-c1cc3ccc(OC)c(OC)c3c[n+]1CC2 [Palmatine chloride] | 0.924
12 | CCOC(=O)Nc1ccc2c(c1)N(C(=O)CCN1CCOCC1)c1ccccc1S2 [Moricizine hydrochloride] | 0.829
13 | CC(=O)N1CCN(c2ccc(OCC3COC(Cn4ccnc4)(c4ccc(Cl)cc4Cl)O3)cc2)CC1 (stereo not given) [Ketoconazole] | 1.03
14 | CC(C)NCC(O)c1ccc(NS(C)(=O)=O)cc1 (stereo not given) [Sotalol hydrochloride] | 1.35
15 | C#C[C@]1(O)CC[C@H]2[C@@H]3CCc4cc(OC)ccc4[C@H]3CC[C@@]21C [Ethynylestradiol 3-methyl ether] | 1
16 | CCCCCCCCCCCCCCCC[N+](C)(C)CCN(Cc1ccc(OC)cc1)c1ncccn1 [Thonzonium bromide] | 1.11
17 | CCN(CC)CCCC(C)Nc1c2ccc(Cl)cc2nc2ccc(OC)cc12 (stereo not given) [Quinacrine dihydrochloride dihydrate] | 1.06
18 | CO[C@@]1(NC(=O)C2SC(=C(C(N)=O)C(=O)O)S2)C(=O)N2C(C(=O)O)=C(CSc3nnnn3C)CS[C@@H]21 (stereo not given in full) [Cefotetan] | 0.667
19 | CN(C)CCCN1c2ccccc2CCc2ccc(Cl)cc21 [Clomipramine hydrochloride] | 0.927
20 | Cc1cc(C(C)(C)CC(C)(C)C)ccc1OCCOCC[N+](C)(C)Cc1ccccc1 [Methyl benzethonium chloride] | 0.967
21 | Cc1cc(NC(=O)C2=C(O)c3ccccc3S(=O)(=O)N2C)no1 [Isoxicam] | 1.44
22 | Nc1ccc(O)c(C(=O)O)c1 [Mesalamine] | 0.605
23 | Clc1ccccc1CN1CCc2sccc2C1 [Ticlopidine hydrochloride] | 1.33
24 | CCN(CC)CCOC(=O)C1(c2ccc([N+](=O)[O-])cc2)CCCC1 [Nitrocaramiphen hydrochloride] | 0.964

Row | SMILES | % Pdx1+ Ins1-low
25 | COC(=O)C1=C(C)NC(C)=C(C(=O)OC)C1c1ccccc1[N+](=O)[O-] [Nifedipine] | 0.509
26 | C#C[C@]1(O)CC[C@H]2[C@@H]3CCC4=CC(=O)CC[C@@H]4[C@H]3CC[C@@]21C [Norethindrone] | 0.86
27 | CO[C@@]1(NC(=O)C(C(=O)O)c2ccc(O)cc2)C(=O)N2C(C(=O)O)=C(CSc3nnnn3C)CO[C@@H]21 (stereo not given in full) [Moxalactam disodium salt] | 0.633
28 | Nc1ccc(S(=O)(=O)Nc2ncccn2)cc1 [Sulfadiazine] | 0.946
29 | C#C[C@]1(OC(C)=O)CC[C@H]2[C@@H]3CCC4=C[C@@H](OC(C)=O)CC[C@@H]4[C@H]3CC[C@@]21C [Ethynodiol diacetate] | 1
30 | O=C1C(CC[S+]([O-])c2ccccc2)C(=O)N(c2ccccc2)N1c1ccccc1 (stereo not given) [Sulfinpyrazone] | 0.829
31 | NS(=O)(=O)c1cc2c(cc1Cl)N=C(CSCc1ccccc1)NS2(=O)=O [Benzthiazide] | 1.29
32 | CC(=O)O[C@]1(C(C)=O)CC[C@H]2[C@@H]3C=C(C)C4=CC(=O)CC[C@@H]4[C@H]3CC[C@@]21C [Nomegestrol acetate] | 1.06
33 | CN1CCN(CCCN2c3ccccc3Sc3ccc(S(=O)(=O)N(C)C)cc32)CC1 [Thioproperazine dimesylate] | 0.887
34 | O=C(O)Cc1ccccc1Nc1c(Cl)cccc1Cl [Diclofenac sodium] | 1.27
35 | CC(C)Cc1ccc([C@H](C)C(=O)O)cc1 [S-(+)-ibuprofen] | 0.629
36 | CS(=O)(=O)c1ccc([C@@H](O)[C@@H](CO)NC(=O)C(Cl)Cl)cc1 [Thiamphenicol] | 0.815
37 | C[C@]12C=CC(=O)C=C1CC[C@@H]1[C@@H]2[C@@H](O)C[C@@]2(C)[C@H]1CC[C@]2(O)C(=O)CO [Prednisolone] | 0.975
38 | CC(=O)Oc1cc(C(F)(F)F)ccc1C(=O)O [Triflusal] | 0.688
39 | CC(C)(C)NC[C@H](O)COc1nsnc1N1CCOCC1 [Timolol maleate salt] | 1
40 | NCCCC[C@H](N[C@@H](CCc1ccccc1)C(=O)O)C(=O)N1CCC[C@H]1C(=O)O [Lisinopril] | 0.855
41 | CCOC(=O)OC(C)OC(=O)[C@@H]1N2C(=O)[C@@H](NC(=O)[C@H](N)c3ccccc3)[C@H]2SC1(C)C (stereo not given in full) [Bacampicillin hydrochloride] | 0.71
42 | Cc1cc(=O)oc2cc(O)ccc12 [Hymecromone] | 0.531
43 | CCOC(=O)c1ccc(OC(=O)CCCCCNC(=N)N)cc1 [Gabexate mesilate] | 0.975
44 | CCCCC[C@H](O)/C=C/[C@@H]1[C@@H](C/C=C\CCCC(=O)O)[C@@H](O)C[C@H]1O [Dinoprost trometamol] | 1.16
45 | CC(=O)c1ccc(S(=O)(=O)NC(=O)NC2CCCCC2)cc1 [Acetohexamide] | 0.874
46 | CC(COc1ccccc1)N(CCCl)Cc1ccccc1 (stereo not given) [Phenoxybenzamine hydrochloride] | 0.641
47 | CCCNC(C)C(=O)Nc1ccccc1C (stereo not given) [Prilocaine hydrochloride] | 1
48 | COc1ccc(CN(CCN(C)C)c2ccccn2)cc1 [Pyrilamine maleate] | 0.778

Structures from the list above that contain a tert-butyl group, in the order listed:
Row | SMILES | % Pdx1+ Ins1-low
20 | Cc1cc(C(C)(C)CC(C)(C)C)ccc1OCCOCC[N+](C)(C)Cc1ccccc1 [Methyl benzethonium chloride] | 0.967
39 | CC(C)(C)NC[C@H](O)COc1nsnc1N1CCOCC1 [Timolol maleate salt] | 1

Quoted from the listing.
Value of CO[C@@]1(NC(=O)C(C(=O)O)c2ccc(O)cc2)C(=O)N2C(C(=O)O)=C(CSc3nnnn3C)CO[C@@H]21 (stereo not given in full) [Moxalactam disodium salt] under % Pdx1+ Ins1-low: 0.633
Value of CCOC(=O)OC(C)OC(=O)[C@@H]1N2C(=O)[C@@H](NC(=O)[C@H](N)c3ccccc3)[C@H]2SC1(C)C (stereo not given in full) [Bacampicillin hydrochloride] under % Pdx1+ Ins1-low: 0.71

Further records

Row | SMILES | % Pdx1+ Ins1-low
49 | Cc1scc2c1N(C(=O)CN1CCN(C)CC1)c1ccccc1NC2=O [Telenzepine dihydrochloride] | 1.44
50 | COc1cc2cc3c4cc(OC)c(OC)cc4cc[n+]3c(C)c2cc1OC [Coralyne chloride hydrate] | 1.35
51 | C=C1c2cccc(O)c2C(=O)C2=C(O)[C@]3(O)C(=O)C(C(N)=O)=C(O)[C@@H](N(C)C)[C@@H]3[C@@H](O)[C@H]12 [Methacycline hydrochloride] | 0.593
52 | c1ccc(C2CN3CCSC3=N2)cc1 (stereo not given) [Tetramisole hydrochloride] | 0.736
53 | Cn1c(=O)c2nc[nH]c2n(C)c1=O [Theophylline monohydrate] | 0.816
54 | O=C(Cn1ccnc1[N+](=O)[O-])NCCO [Etanidazole] | 0.952
55 | CO[C@H]1/C=C/O[C@@]2(C)Oc3c(C)c(O)c4c(c3C2=O)C2=NC3(CCN(CC(C)C)CC3)NC2=C(NC(=O)/C(C)=C\C=C\[C@H](C)[C@H](O)[C@@H](C)[C@@H](O)[C@@H](C)[C@H](OC(C)=O)[C@@H]1C)C4=O [Rifabutin] | 0.679
56 | O=c1cc(-c2ccc(O)cc2)oc2cc(O)cc(O)c12 [Apigenin] | 1.23
57 | NC(=O)N1c2ccccc2C=Cc2ccccc21 [Carbamazepine] | 0.96
58 | Clc1ccc(C(Cn2ccnc2)OCc2c(Cl)cccc2Cl)c(Cl)c1 (stereo not given) [Isoconazole] | 0.868
59 | COc1c(O[C@@H]2O[C@H](CO)[C@@H](O)[C@H](O)[C@H]2O)cc2c(c1OC)-c1ccc(SC)c(=O)cc1[C@@H](NC(C)=O)CC2 [Thiocolchicoside] | 0.803
60 | CN(C)CCN(Cc1cccs1)c1ccccn1 [Methapyrilene hydrochloride] | 1.05
61 | CC(=O)N[C@@H](CC(C)C)C(=O)O [N-Acetyl-L-leucine] | 0.984
62 | Nc1nc(=O)c2nc(CNc3ccc(C(=O)N[C@@H](CCC(=O)O)C(=O)O)cc3)cnc2[nH]1 [Folic acid] | 0.895
63 | CC[C@H]1OC(=O)[C@H](C)[C@@H](O[C@H]2C[C@@](C)(OC)[C@@H](O)[C@H](C)O2)[C@H](C)[C@@H](O[C@@H]2O[C@H](C)C[C@H](N(C)C)[C@H]2O)[C@](C)(O)C[C@@H](C)/C(=N\OCOCCOC)[C@H](C)[C@@H](O)[C@]1(C)O [Roxithromycin] | 0.829
64 | COc1c2ccoc2nc2c(OC)c(OCC(O)C(C)(C)O)ccc12 (stereo not given) [Evoxine] | 0.529
65 | Nc1nc(=S)c2ncn([C@@H]3O[C@H](CO)[C@@H](O)[C@H]3O)c2[nH]1 [Thioguanosine] | 1.11
66 | CC(C)NCC(O)COc1ccc(COCCOC(C)C)cc1 (stereo not given) [Bisoprolol fumarate] | 1.42
67 | OC(CCN1CCCCC1)(c1ccccc1)C1CC2C=CC1C2 (stereo not given) [Biperiden hydrochloride] | 0.699
68 | CCN(CC)CC#CCOC(=O)C(O)(c1ccccc1)C1CCCCC1 (stereo not given) [Oxybutynin chloride] | 1.16
69 | Cc1ncc([N+](=O)[O-])n1CCO [Metronidazole] | 0.901
70 | CCN(Cc1ccncc1)C(=O)C(CO)c1ccccc1 (stereo not given) [Tropicamide] | 1.14
